Data as given in PubChem BioAssay AID720505 (Drosophila RNAi Screening Center, 2013).

Purpose: 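Fly regulators or components of the CRAC channel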 (primary screen)
Cells: Drosophila S2R+ cells
Knock-down reagent: long dsRNA against Drosophila genes
Conditions: thapsigargin (2 µM) in calcium-free buffer to empty internal stores, then 2 mM calcium added back
Measurement: 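Fluo-4 signal in 384-well plates read on a FLIPR after thapsigargin (2 µM, calcium-free) store depletion and 2 mM calcium add-back; unnormalised mean endpoint per well; screen run twice, selected wells retested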
Scale: calcium signal and retest calcium signal: higher = more calcium entry after store depletion
Rule for the call: 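Knock-downs counted as hits when calcium entry dropped relative to STIM1 positive and Rho1 negative controls present on each plate; roughly 1500 genes called, with reductions of differing size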
Meaning of the calls: active = called as lowering calcium entry; inactive = not called
The screen tested about 20,000 reagents; below is an unselected part of those with a known target gene and a result. In the full data, about 2,100 (10%) got an active call. 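Raw plate signals without normalisation; calls rest on control-based scores that were not deposited; replicate 2 separates called from uncalled poorly.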 A number with no mark means an inactive call. Reagents against one gene are numbered here. Not given: the amount of reagent, the time to read-out.

dpr14
- calcium signal, replicate 1: 158
- calcium signal, replicate 2: 116

alpha-Man-IIb
- calcium signal, replicate 1: 119
- calcium signal, replicate 2: 179

Cp7Fc
- calcium signal, replicate 1: 238
- calcium signal, replicate 2: 95.3

QC
- calcium signal, replicate 1: 102
- calcium signal, replicate 2: 113

fzo
- calcium signal, replicate 1: 208
- calcium signal, replicate 2: 148

TfIIS
- calcium signal, replicate 1: 156
- calcium signal, replicate 2: 113

Sorted by “calcium signal, replicate 1” (lowest first): 3 of the entries above
QC
- calcium signal, replicate 1: 102
- calcium signal, replicate 2: 113

alpha-Man-IIb
- calcium signal, replicate 1: 119
- calcium signal, replicate 2: 179

Cp7Fc
- calcium signal, replicate 1: 238
- calcium signal, replicate 2: 95.3

The list goes on.
lncRNA:CR31781 #1
- calcium signal, replicate 1: 117
- calcium signal, replicate 2: 113

lncRNA:CR31781 #2
- calcium signal, replicate 1: 119
- calcium signal, replicate 2: 106

Eo
- calcium signal, replicate 1: 72.9 (active)
- calcium signal, replicate 2: 152

yki
- calcium signal, replicate 1: 184
- calcium signal, replicate 2: 109

gcl
- calcium signal, replicate 1: 189
- calcium signal, replicate 2: 206

CG16868
- calcium signal, replicate 1: 180
- calcium signal, replicate 2: 99.7

Or98P
- calcium signal, replicate 1: 115
- calcium signal, replicate 2: 129

Rpn12R
- calcium signal, replicate 1: 95.1
- calcium signal, replicate 2: 204

CG13305
- calcium signal, replicate 1: 81.2
- calcium signal, replicate 2: 63.4

Fum1
- calcium signal, replicate 1: 125
- calcium signal, replicate 2: 129
- retest calcium signal, replicate 1: 120
- retest calcium signal, replicate 2: 111

CG13016
- calcium signal, replicate 1: 90.4
- calcium signal, replicate 2: 146

CG6769
- calcium signal, replicate 1: 151
- calcium signal, replicate 2: 130

bab2 #1
- calcium signal, replicate 1: 96.7
- calcium signal, replicate 2: 152

bab2 #2
- calcium signal, replicate 1: 106
- calcium signal, replicate 2: 129
